# The campaign covered roughly 52,000 sequences. About 210 (0.4%) were called active.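 The calls were made as follows: active = gene whose silencing raises cell survival under the drug, median off-target-corrected z-score across its silencing RNAs 2 or more; inactive = the rest.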 Some of the results follow.
# Assay: Resistance to Poly (ADP-Ribose) Polymerase inhibitor: Gene Identification via Genome-wide siRNA Screen
# Conditions: mouse BRCA2 R2336H ES cells, olaparib, CellTiter-Glo viability; active compounds read high
# Procedure, shortened: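 Genome-wide siRNA screen (3 siRNAs/gene, 20 nM) in mouse ES cells carrying hypomorphic BRCA2 R2336H; olaparib 500 nM added 48 h post-transfection, CellTiter-Glo viability 72 h later. Normalized to plate-median negative control; MAD z-scores, gene median, seed-adjusted.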
row,Sequence,z-score
1,GGAGCUCCUUAUGAAACUGTT against 2310050B20Rik,inactive: -1.09
2,GGAGCUACCUGCAUGAUGATT against 4930546H06Rik,inactive: 0.722
3,CCACAGACCUCACUUUUGGTT against 2810410M20Rik,inactive: -1.66
4,GUAUCAGCCGAGCAACAUCTT against Mrpl34,inactive: -0.232
5,CGCCAUCCCAUGUUACUCUTT against Papss2,inactive: -0.585
6,GGCCACAUUGUCCUAUCAGTT against Cdh16,inactive: 1.37
7,GUUUGGAGUGAUGAUUGAGTT against Pla2g2e,inactive: -0.182
8,GCCUGGUACAGAACCAGUATT against Ntsr2,inactive: 0.908
9,GGCUUUGGACAGAAUGUGGTT against Itgam,inactive: -0.477
10,GGAAAAAGAGUCCUUCAUGTT against A730017C20Rik,inactive: 1.13
11,GGCAGAUGGCAAAGAAUUATT against Pbxip1,inactive: 0.792
12,GGCUUUCUUUCCCAUCGAUTT against Dpf2,inactive: 0.139
13,GGCCUCAGACCUUCUAUGATT against Mtap,inactive: 1.56
14,GGAUCAAUCAAUGACAGUGTT against Tbn,inactive: -0.996
15,GGGAGAUGCAACAACAAGATT against Epx,inactive: 1.18
16,GGUGUGAGUGUAAGUUUAUTT against Wnt16,inactive: 0.371
17,GGCAACUGUUUCUGCUCCGTT against Ap4e1,inactive: 1.07
18,GGGAGAAGAAAACUGGCUATT against Pnlip,inactive: 0.259
19,CCGAUGCAUCUGCUUUAUUTT against 4931419K03Rik,inactive: -0.514
20,GGCAACUUUUUACACAAAGTT against V1rc7,inactive: 0.139
21,GGCCUUUUACAAUGGAACCTT against Slc2a9,inactive: 0.844
22,CCCUAGAGGCAGAUGCAAATT against MGC54654,inactive: 0.199
23,GGUGUUGCAUUCAGAUUUUTT against Ian4,inactive: -0.696
24,GCCUACAGAGAUCUAUAAUTT against Gmds,inactive: -0.896
25,GGUCGAAGUGGACAUCUUUTT against Grik4,inactive: 0.612
26,GGAUGCUAUUGUGAAUGUGTT against Dnmt3b,inactive: -1.53

# Some of the entries so far, as tab-separated lines.
row	Sequence	z-score
9	GGCUUUGGACAGAAUGUGGTT against Itgam	inactive: -0.477
10	GGAAAAAGAGUCCUUCAUGTT against A730017C20Rik	inactive: 1.13

# Going on with the list:

row,Sequence,z-score
1,GGAUAACUUUAUGAAUGAGTT against Loxl3,inactive: 0.414
2,GGCUUCUUCCUAGAAAUGCTT against 0610012H03Rik,inactive: 0.436
3,GGAACACAAUGGGACGAGUTT against Ccl11,inactive: 0.233
4,GCUAGGAACGAGGAGCUAATT against B230206N24Rik,inactive: -2.7
5,GGCCGGAUGGCUCCAUUAUTT against Mmp28,inactive: -2.48
6,GGUAAAGAAAGCCUUUUUUTT against Prkag1,inactive: 0.254
7,GCCCUUCAAAAGGAGCAGUTT against Cap1,inactive: -0.833
8,CCAGAUUGGUGAUGGUAGUTT against LOC432637,inactive: 0.502
9,GCACCAAGCGUGUAAAAACTT against Mterf,inactive: 1.65
10,GGUACUAUUAACAAACACUTT against BB128963,inactive: -0.282
11,GCGGAGGCAUUGCUAAUGATT against 0610027B03Rik,inactive: 0.715
12,CGCUACCUACAGAAUAACATT against 4933440H19Rik,inactive: -0.672
13,GGCUGCUUUACUGAAGUAATT against 1700052H20Rik,inactive: -1.27
14,GCCUAUACAACCCUAUUGUTT against 9030409G11Rik,inactive: 0.173
15,GCAACUUCUAAAGGUCCUATT against D130038B21Rik,inactive: 1.03
16,GGAGAGCAGUGAUAACCAGTT against C530008M17Rik,inactive: -0.436
17,CCAAAGAUUGCUUUCACAATT against Ube2d1,inactive: -1.6
18,CGGUCCUGAAUGAUCCUACTT against Gp2,inactive: 2.43
19,GCUGCCUCAUUUCUGGAUGTT against 2310015I08Rik,inactive: -1.36
20,CGAUGAUAACGAAAUGAACTT against Scn3a,inactive: 0.178
21,CCUUCUAGACACCAUACCCTT against Lrdd,inactive: -0.398
22,GGUUUAUGACAAACUGAAATT against Enpp4,inactive: 0.306
23,GGAAGAUUCAUGUUCCUAUTT against Mug1,inactive: 0.629
24,GGAACAUCAUCCACUGGAATT against Crhr1,inactive: 0.111
25,GGGCUGUUUAACAAGAUCATT against BC052066,inactive: 0.108
26,GGACUUAAAAGUCACAUCATT against Tcf4,inactive: 0.936

# Reference: PubChem BioAssay AID1347423 (Functional Genomics Laboratory (NCATS/FGL), 2020)
